Test results as given in PubChem BioAssay AID2685 (National Center for Advancing Translational Sciences (NCATS), 2010).
The other results are listed elsewhere or left out. The main result of the screen is listed elsewhere. These columns were measured beside it and carry no call. Most of these compounds were active or inconclusive in the main read-out, so they are no random draw. Words in brackets tell the shape of the fitted curve; partial curves, single points and poor fits give uncertain potencies.

Experiment: qHTS Assay for Lipid Storage Modulators in Drosophila S3 Cells;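 as to cell number change: cells counted by Cell Tracker Red CMTPX staining in the red channel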
Details: BODIPY lipid droplet fluorescence, 18-24 h; for cell number change: measured here: cell count max response, cells fed with added oleic acid
Procedure, shortened: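 Drosophila S3 cells got compounds at several concentrations plus oleic acid (400 uM solution). Laser-scanning cytometry with 488 nm excitation read lipid droplets at 500-530 nm and cells at 575-640 nm. Percent activity was relative to 20 uM Triacsin C.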

[1] = measured here: lipid fluorescence (Fed channel) AC50, cells fed with added oleic acid
[2] = measured here: cell number channel AC50, cells fed with added oleic acid

COC(=O)[C@H](CCSC)NS(=O)(=O)c1ccccc1Br
cell number change: -4.48% | AC50 [1]: 29.1 µM [rising, single point]

Cc1cc(C)cc(NC(=O)CSc2nc3ccccc3nc2N2CCCC2)c1
cell number change: -12.7% | AC50 [1]: 16.4 µM [falling, single point]

COc1ccc(N2C(=O)CSC2c2cccc(F)c2)cc1 (stereo not drawn)
cell number change: 100%

Cc1ccc(N(Cc2ccccc2F)S(C)(=O)=O)cc1C
cell number change: -12.1% | AC50 [1]: 0.259 µM [falling, full curve]

CCCc1nc(SCC(=O)N2CCC(Cc3ccccc3)CC2)c2c(=O)n(C)c(=O)n(C)c2n1
cell number change: -40.7% | AC50 [2]: 9.2 µM [falling, partial curve, poor fit]

O=C(Cn1c(CO)nc2ccccc21)NCc1ccc2c(c1)OCO2
cell number change: -40.3% | AC50 [2]: 29.1 µM [falling, single point] | AC50 [1]: 29.1 µM [falling, single point]

COCCNC(=S)Nc1cc(OC)c(OC)cc1C#N
AC50 [1]: 0.058 µM [falling, full curve, poor fit]

CCC(=O)N1N=C(c2ccc(NS(C)(=O)=O)cc2)CC1c1ccc(C)cc1 (stereo not drawn)
AC50 [1]: 0.58 µM [rising, single point]

Cc1ncc(CO)c(CNc2ccc(-c3nc4ccccc4[nH]3)cc2)c1O
cell number change: 36% | AC50 [2]: 29.1 µM [rising, single point]

COC(=O)C(C)Sc1nnc(Cc2cc(=O)[nH]c(=O)[nH]2)n1-c1cc(C)ccc1C (stereo not drawn)
cell number change: -2.03% | AC50 [1]: 0.082 µM [falling, single point]

Cc1nc(-c2ccc(S(=O)(=O)N3CCN(Cc4ccccc4)CC3)s2)cs1
cell number change: 57.9% | AC50 [2]: 23.1 µM [rising, single point] | AC50 [1]: 20.6 µM [rising, single point]

COCCSc1ccccc1C(=O)N1CCN(c2ccccc2OC)CC1
cell number change: -64.8% | AC50 [2]: 18.4 µM [falling, single point] | AC50 [1]: 18.4 µM [falling, single point]

Cc1cc(=O)n(C)c(=O)n1CCCNc1ccccc1
AC50 [2]: 0.58 µM [falling, partial curve, poor fit] | AC50 [1]: 0.517 µM [falling, partial curve, poor fit]

Cc1ccc(S(=O)(=O)NCCCN(C)C)cc1
cell number change: 0.481% | AC50 [1]: 0.13 µM [falling, full curve, poor fit]

CCSc1cc(N2CC(C)OC(C)C2)nc(-c2ccccc2Cl)n1 (stereo not drawn)
cell number change: -1.01%

COc1ccc2nc(Nc3nc4ccc(NC(C)=O)cc4s3)sc2c1
cell number change: -35.5% | AC50 [2]: 32.6 µM [falling, single point]

N#Cc1c(-c2ccc(Cl)cc2Cl)nc2n(c1=O)CCS2
cell number change: 11% | AC50 [1]: 3.26 µM [falling, partial curve]

CCC(C(=O)N1CCN(S(=O)(=O)c2ccc(F)cc2)CC1)c1ccccc1 (stereo not drawn)
cell number change: -0.417% | AC50 [2]: 1.03 µM [falling, full curve, poor fit] | AC50 [1]: 4.11 µM [falling, single point]

CC(C)N1CCc2c(sc(NC(=O)c3cc4cc([N+](=O)[O-])ccc4s3)c2C(N)=O)C1
cell number change: 27.1% | AC50 [2]: 0.517 µM [rising, full curve, poor fit] | AC50 [1]: 1.16 µM [rising, single point]

CC(/C=N/NC(=O)CSc1nnc(SCc2ccccc2)s1)=C\c1ccco1
cell number change: 12% | AC50 [1]: 0.58 µM [falling, single point]

Cc1ccc(-n2[nH]c(C)c(C=NC34CN5CN(CN(C5)C3)C4)c2=O)cc1C
cell number change: -13.5% | AC50 [1]: 29.1 µM [falling, single point]

COc1cc(C)ccc1OCc1cc(C(=O)NCc2ccncc2)no1
cell number change: 50.7% | AC50 [1]: 14.6 µM [rising, partial curve]

Cc1ccc(C(=O)Nc2nnc(S(=O)(=O)N3CCC(C)CC3)s2)cc1
AC50 [1]: 23.1 µM [rising, single point]

COc1cc(OC)c(C(=O)OCC(=O)Nc2cc(C)on2)cc1OC
cell number change: -19.7%

Cc1ccc(C2CC(=O)Nc3cc4c(cc32)OCO4)o1 (stereo not drawn)
cell number change: 22.6% | AC50 [2]: 0.082 µM [rising, full curve, poor fit]

O=C(NCCCO)c1cc2c(cn1)[nH]c1ccccc12
cell number change: 43% | AC50 [2]: 1.46 µM [rising, full curve] | AC50 [1]: 6.51 µM [rising, single point]

CCOC(=O)C1CCCN(C(=O)CN2CCN(Cc3ccc(Cl)cc3)C2=O)C1 (stereo not drawn)
cell number change: 28.4% | AC50 [1]: 29.1 µM [falling, single point]

COc1ccc2nc(C)cc(N3CCN(c4ccccc4)CC3)c2c1
cell number change: 3.23% | AC50 [1]: 4.61 µM [falling, full curve]

COc1ccc(CCNC(=O)CSc2nc3[nH]ncc3c(=O)[nH]2)cc1OC
AC50 [1]: 11.6 µM [falling, partial curve, poor fit]

COc1cnn(-c2ccc(Br)cc2)c(=O)c1SCc1ccccc1
cell number change: -5.89% | AC50 [1]: 0.146 µM [falling, full curve, poor fit]

COc1ccc(NC(=O)[C@@H]2CCCN2S(=O)(=O)c2cccc3cccnc23)cc1
cell number change: -13.3%

COc1ccc(CCNC(=O)C2CCN(C(=O)c3ccc(Cl)cc3)CC2)cc1OC
cell number change: -4.4% | AC50 [1]: 6.51 µM [falling, single point]

O=P(O)(CP(=O)(c1ccccc1)c1ccccc1)c1ccccc1
cell number change: 5.16% | AC50 [1]: 32.6 µM [falling, single point]

COC(=O)c1ccn(-c2nc(-c3ccco3)cc(C(F)(F)F)n2)n1
cell number change: 40.1% | AC50 [2]: 3.66 µM [rising, full curve] | AC50 [1]: 6.51 µM [rising, partial curve]

CN(Cc1ccco1)C(=O)Cn1ncc2c([nH]c3ccccc32)c1=O
cell number change: -19% | AC50 [1]: 0.517 µM [falling, single point]

CCCCCc1cc(=O)oc2c(C(CCN3CCCC(C)C3)c3ccc(N(C)C)cc3)c(OC)cc(OC)c12 (stereo not drawn)
cell number change: -67.1% | AC50 [2]: 29.1 µM [falling, single point] | AC50 [1]: 1.84 µM [falling, partial curve]

CC(=O)c1cc(F)c(N2CCCCCC2)cc1C
cell number change: -39.7% | AC50 [2]: 29.1 µM [falling, single point] | AC50 [1]: 29.1 µM [falling, single point]

Cc1cccc(NS(=O)(=O)c2ccc(C(=O)NCCCN3CCOCC3)cc2)c1C
cell number change: -16.4%

Cc1n[nH]c(C)c1S(=O)(=O)N(CC(=O)N1CCc2ccccc21)c1ccc(C(C)C)cc1
cell number change: 16.5%

Cc1ccc(S(=O)(=O)NC(=NCC(=O)O)c2ccc(F)cc2)cc1
AC50 [1]: 18.4 µM [falling, single point]

Cc1cc(-c2ccc(Cl)cc2)c2cnn(C(C)C)c2n1
cell number change: -38.7% | AC50 [2]: 32.6 µM [falling, single point]

COc1ccc(/C=C2\SC(=O)N(CC(=O)NCCCn3ccnc3)C2=O)cc1
cell number change: 18.7% | AC50 [2]: 3.66 µM [rising, partial curve] | AC50 [1]: 1.84 µM [rising, partial curve, poor fit]

O=C(C1COc2ccccc2O1)N1CCN(c2ccc(F)cc2)CC1 (stereo not drawn)
cell number change: -4.7%

CCN(CCCNC(=O)CCc1nc(-c2ccc(OC)cc2)no1)c1cccc(C)c1
cell number change: 18.2% | AC50 [1]: 0.103 µM [falling, full curve, poor fit]

Cn1c(=O)c(Oc2cc(Cl)cc(Cl)c2)nc2ccccc21
AC50 [2]: 1.46 µM [rising, partial curve]

COC(C(=O)NCc1ccccc1C)c1ccccc1 (stereo not drawn)
cell number change: 94.1% | AC50 [2]: 29.1 µM [rising, single point] | AC50 [1]: 6.51 µM [falling, partial curve]

COc1cccc(CC(NC(C)=O)C(=O)NC2CCN(C(=O)c3ccc(Cl)cc3)CC2)c1 (stereo not drawn)
AC50 [1]: 29.1 µM [falling, single point]

CC(=O)NCc1ccc(C(=O)O)cc1
cell number change: -10.9% | AC50 [1]: 0.00517 µM [falling, full curve, poor fit]

Cc1ccc(CNc2nc(-c3cccnc3)nc3ccccc23)cc1
cell number change: -32.5% | AC50 [2]: 0.146 µM [falling, full curve, poor fit] | AC50 [1]: 0.116 µM [falling, full curve, poor fit]

CN(C)CCCN(C(=O)c1ccc(N2C(=O)CCC2=O)cc1)c1nc2c(F)cccc2s1
cell number change: -38.8% | AC50 [1]: 29.1 µM [falling, single point]

COc1ccc(C2=NN(c3ccc(C(=O)O)cc3)C(c3ccc(OC)c(OC)c3)C2)cc1 (stereo not drawn)
cell number change: -12.8% | AC50 [1]: 3.66 µM [falling, partial curve, poor fit]

COc1ccc(N2CCN(C(=O)c3ccc(-c4nc5ccccc5s4)o3)CC2)cc1
cell number change: 6.25% | AC50 [1]: 5.8 µM [rising, full curve]

CCOC(=O)C1=C(C)NC(=O)NC1c1ccc(Cl)cc1Cl (stereo not drawn)
AC50 [1]: 0.82 µM [falling, full curve]

CC(C)N1C(=O)S/C(=C/c2ccc(Sc3nc4ccccc4[nH]3)o2)C1=O
cell number change: -23.2% | AC50 [1]: 29.1 µM [falling, single point]

O=C(c1cccs1)N1CC=C(c2ccccc2)CC1
cell number change: 11% | AC50 [1]: 4.61 µM [rising, single point]

O=S(=O)(Cc1ccccc1)c1ccccc1-c1nnc(-c2ccccc2)o1
AC50 [1]: 4.11 µM [falling, single point]

CCOCCCNC(=O)C(NC(=O)c1ccc(=O)[nH]c1)c1ccc(C)cc1 (stereo not drawn)
cell number change: -48.8% | AC50 [2]: 1.16 µM [falling, full curve] | AC50 [1]: 0.651 µM [falling, partial curve, poor fit]

O=C(COC(=O)Cc1ccsc1)Nc1ccc(F)cc1Cl
cell number change: -2.71% | AC50 [1]: 0.291 µM [rising, partial curve, poor fit]
